# Assay results published in PubChem BioAssay AID1487 (National Center for Advancing Translational Sciences (NCATS), 2009).
# The other results are listed elsewhere or left out. Further columns of the screen follow, without active or inactive calls. Most of these compounds were active or inconclusive in the main read-out, so they are no random draw. Potencies come from curve fits of mixed quality, noted in brackets.
# Assay: qHTS Assay for Modulators of Lamin A Splicing
# Conditions: HeLa LMNA splicing GFP/RFP minigene ratio, 48 h
# Outline: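 Read-out is the ratio of GFP to DsRed2 object intensity, acquired by 488 nm laser-scanning cytometry on HeLa lamin A-EGFP minigene reporter cells. Compound incubation 48 hrs at 37 °C in Opti-MEM with 2% FBS; DMSO 0.5% final.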
# [1] = measured here: GFP splicing reporter channel
# [2] = measured here: RFP viability control channel
Compound,AC50 [1],AC50 [2]
COc1cccc(-c2cc(C(=O)N3CC4(C)CC3CC(C)(C)C4)no2)c1 (stereo not given),"35.5 µM [rising, single point]","35.5 µM [rising, partial curve]"
Cc1cc2c(cc1C)CSC(c1c(O)ccc3ccccc13)SC2,"10 µM [rising, partial curve]","15.8 µM [rising, single point]"
CCOc1ccc(C(=O)Nc2c(C(N)=O)oc3ccccc23)cc1,,"22.4 µM [rising, single point]"
COc1ccc(CCNc2nc(SCc3ccccc3Cl)nc3ccccc23)cc1OC,"2.51 µM [falling, partial curve, poor fit]","3.16 µM [falling, partial curve, poor fit]"
COc1cc2c(cc1OC)CN(C(=O)c1cc(S(=O)(=O)N3CCOCC3)ccc1Cl)CC2,,"12.6 µM [rising, single point]"
O=S1(=O)c2ccccc2N(Cc2ccccc2Cl)c2ccccc21,,"0.0631 µM [falling, full curve, poor fit]"
CCOC(=S)SCc1cn2cccc(C)c2n1,,"0.0891 µM [falling, full curve]"
Cc1nnc(SC(C)C(=O)Nc2ccc(S(=O)(=O)N3CCCCCC3)cc2)s1 (stereo not given),"12.6 µM [rising, single point]","15.8 µM [rising, single point]"
CC(C)Nc1nc(NC(C)C)nc(SCCOC(=O)Nc2ccc(Cl)cc2Cl)n1,"14.1 µM [rising, single point]","31.6 µM [rising, single point]"
O=c1oc2c3c4c(cc2c2c1CCC2)OCCN4CCC3,"5.62 µM [rising, partial curve, poor fit]","6.31 µM [rising, partial curve]"
Cc1ccc(S(=O)(=O)N(CC(=O)Nc2ccccc2-c2ccccc2)c2ccc(C)cc2C)cc1,,"35.5 µM [rising, partial curve, poor fit]"
COc1ccccc1CNc1ncnc2ccc(-c3c(C)noc3C)cc12,"1.58 µM [falling, full curve]","11.2 µM [rising, partial curve]"
COc1ccccc1CNC(=O)c1ccc(-c2ccccc2C(F)(F)F)o1,,"22.4 µM [rising, single point]"
Cc1ccc(OCC(O)CN2CCN(Cc3ccc4c(c3)OCO4)CC2)cc1C (stereo not given),"11.2 µM [rising, partial curve]","14.1 µM [rising, single point]"
CCN(CC)S(=O)(=O)c1cc([N+](=O)[O-])ccc1NNC(=O)Nc1ccccc1,"25.1 µM [rising, single point]",
CCOC(=O)c1ccc2c(c1)nc(SCC(=O)N1CCOCC1)n2CC,"1.41 µM [rising, partial curve]",
O=C(Nc1nccs1)c1cn(-c2ccccc2)nc1-c1ccccc1,,"20 µM [rising, single point]"

Compound,AC50 [1],AC50 [2]
C(=C\c1ccccc1)/CSc1nnc(-c2cnccn2)n1Cc1ccco1,"31.6 µM [rising, single point]","35.5 µM [rising, single point]"
[O-][n+]1cccc2c(Br)cc(Br)c(O)c21,"0.0112 µM [rising, full curve, poor fit]",
CC(=O)Nc1ccc(S(=O)(=O)N2CCN(c3cc(C)ccc3C)CC2)cc1,"35.5 µM [rising, single point]","35.5 µM [rising, partial curve]"
COC(=O)Cn1c(=NC(=O)c2cc(OC)c(OC)c(OC)c2)sc2cc(OC)ccc21,,"0.0224 µM [rising, full curve, poor fit]"
O=C(CN1CCCN(S(=O)(=O)c2ccc(F)cc2)CC1)Nc1ccccc1Br,"35.5 µM [rising, single point]","35.5 µM [rising, single point]"
N#C/C(=C\c1ccc(-c2ccccc2[N+](=O)[O-])o1)C(=O)Nc1nc(-c2cccs2)cs1,"12.6 µM [rising, single point]","14.1 µM [rising, single point]"
COc1ccc(CNC(=O)c2cc3c(=O)n(Cc4cccs4)ccc3nc2C)cc1,"8.91 µM [rising, partial curve]","7.08 µM [rising, partial curve]"
O=C(CN1C(=O)S/C(=C/c2cccnc2)C1=O)N1CCOCC1,,"10 µM [falling, single point]"
COc1ccc(CNC(=O)c2c(N)n(CCCN3CCOCC3)c3nc4ccccc4nc23)cc1,"35.5 µM [falling, single point]","31.6 µM [falling, partial curve]"
O=C1OC(c2ccc(O)cc2)(c2ccc(O)cc2)c2ccccc21,,"0.0251 µM [rising, full curve, poor fit]"
COc1ccc(NC(=O)/C(C#N)=C/c2c(C)nn(-c3ccc(F)cc3)c2Cl)cc1OC,,"11.2 µM [rising, partial curve]"
CCOC(=O)c1cc(C)n(S(=O)(=O)c2ccc(C)cc2)c1C,"15.8 µM [rising, single point]","15.8 µM [rising, partial curve]"
c1cc(Nc2ncnc3sccc23)cc(-c2nnc3n2CCCCC3)c1,,"14.1 µM [rising, partial curve]"
COc1cccc(NC(=S)NNC(=O)c2ccccc2OC(F)F)c1,"25.1 µM [falling, single point]","35.5 µM [falling, single point]"
Cc1cc(=O)n2c(C(=O)Nc3ccc(C)c(C)c3)c(C(=O)Nc3ccccc3)sc2n1,,"35.5 µM [falling, single point]"
CN(C)c1ccc(CNc2nc(-c3ccco3)nn2S(=O)(=O)c2ccc(Cl)cc2)cc1,"0.00794 µM [falling, full curve, poor fit]",
Cc1nn(-c2ccc(F)cc2)c(C)c1/C=C/C(=O)N1CCNC(=O)C1,,"28.2 µM [falling, single point]"

# Grouped by structure, those above with a cyano group (two)
Compound,AC50 [1],AC50 [2]
N#C/C(=C\c1ccc(-c2ccccc2[N+](=O)[O-])o1)C(=O)Nc1nc(-c2cccs2)cs1,"12.6 µM [rising, single point]","14.1 µM [rising, single point]"
COc1ccc(NC(=O)/C(C#N)=C/c2c(C)nn(-c3ccc(F)cc3)c2Cl)cc1OC,,"11.2 µM [rising, partial curve]"
